Experimental data as given in PMC3162602, “Laforin, a Dual Specificity Phosphatase Involved in Lafora Disease, Is Present Mainly as Monomeric Form with Full Phosphatase Activity” (PLoS ONE, 2011).
Results are given in words; binding and its absence hold for the method and conditions named. Binding seen in cells or lysates may run through a third protein. Some binding calls cover weakened binding; strength is not graded here. Where a sequence is shown, tags or fusion partners need not be part of it.

T1: FLAG-malin (human) (UniProt Q6VVB1)
T1 sequence: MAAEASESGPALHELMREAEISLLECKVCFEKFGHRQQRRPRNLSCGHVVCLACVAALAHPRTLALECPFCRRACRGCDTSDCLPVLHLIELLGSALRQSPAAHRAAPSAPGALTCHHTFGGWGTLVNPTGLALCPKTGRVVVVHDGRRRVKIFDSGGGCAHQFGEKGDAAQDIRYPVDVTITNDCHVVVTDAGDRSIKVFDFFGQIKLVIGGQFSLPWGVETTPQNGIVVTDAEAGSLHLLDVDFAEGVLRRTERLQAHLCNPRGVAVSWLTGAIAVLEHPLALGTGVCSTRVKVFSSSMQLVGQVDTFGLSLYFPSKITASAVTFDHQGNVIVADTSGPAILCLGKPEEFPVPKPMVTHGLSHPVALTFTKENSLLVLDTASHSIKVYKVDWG

B1: Hs-laforin-HIS6 (enzyme, UniProt O95278 1-331)
chain: MRFRFGVVVPPAVAGARPELLVVGSRPELGRWEPRGAVRLRPAGTAAGDGALALQEPGLWLGEVELAAEEAAQDGAEPGRVDTFWYKFLKREPGGELSWEGNGPHHDRCCTYNENNLVDGVYCLPIGHWIEATGHTNEMKHTTDFYFNIAGHQAMHYSRILPNIWLGSCPRQVEHVTIKLKHELGITAVMNFQTEWDIVQNSSGCNRYPEPMTPDTMIKLYREEGLAYIWMPTPDMSTEGRVQMLPQAVCLLHALLEKGHIVYVHCNAGVGRSTAAVCGWLQYVMGWNLRKVQYFLMAKRPAVYIDEEALARAQEDFFQKFGKVRSSVCSL
B2: laforin dimer (peak A of Hs-laforin-HIS6) (complex, UniProt O95278 1-331)
chain: B1 chain

Target: T1, FLAG-malin (human)
Assay: co-IP; FLAG-malin immunoprecipitated from HEK293 lysate on anti-FLAG M2 agarose, washed twice with modified RIPA buffer, then incubated with purified laforin monomer or dimer for 1 hr at 4°C; washed, eluted, blotted for laforin and FLAG; only the binder purified

Binder	binding
B1	binds
B2	binds
